The list shows a part of the results.
Experiments:
Test in all cases: log2 fold change, soluble protein after heating vs DMSO (PISA); higher = thermal stabilisation; K562 lysate, 10 uM; active = over 0.2 and 3.5 SD of the protein, either way, in both replicates (recomputed)
vemurafenib = compound: CCCS(=O)(=O)Nc1ccc(F)c(C(=O)c2c[nH]c3ncc(-c4ccc(Cl)cc4)cc23)c1F [vemurafenib]
Outline: (§1)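 Quantification was by TMTpro 16plex LC-MS/MS with equalised channel sums, applied to the supernatant after 21,000xg for 90 min. Samples were crude K562 extract at 1 mg/mL protein in PBS pH 7.4 with 1 mM MgCl2, treated with 10 μM compound for 30 min, heated for 3 min across 48°C-58°C, pooled and brought to 0.5% NP-40 at 4°C. Values are log-two fold changes in thermal stability relative to solvent controls, from duplicates.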

By UniProt entry, the sequences of proteins in these tests, tags left out. Where a name states a change or a piece, a line headed by the entry shows the natural chain unless it says otherwise.
UniProt Q9P1Z2: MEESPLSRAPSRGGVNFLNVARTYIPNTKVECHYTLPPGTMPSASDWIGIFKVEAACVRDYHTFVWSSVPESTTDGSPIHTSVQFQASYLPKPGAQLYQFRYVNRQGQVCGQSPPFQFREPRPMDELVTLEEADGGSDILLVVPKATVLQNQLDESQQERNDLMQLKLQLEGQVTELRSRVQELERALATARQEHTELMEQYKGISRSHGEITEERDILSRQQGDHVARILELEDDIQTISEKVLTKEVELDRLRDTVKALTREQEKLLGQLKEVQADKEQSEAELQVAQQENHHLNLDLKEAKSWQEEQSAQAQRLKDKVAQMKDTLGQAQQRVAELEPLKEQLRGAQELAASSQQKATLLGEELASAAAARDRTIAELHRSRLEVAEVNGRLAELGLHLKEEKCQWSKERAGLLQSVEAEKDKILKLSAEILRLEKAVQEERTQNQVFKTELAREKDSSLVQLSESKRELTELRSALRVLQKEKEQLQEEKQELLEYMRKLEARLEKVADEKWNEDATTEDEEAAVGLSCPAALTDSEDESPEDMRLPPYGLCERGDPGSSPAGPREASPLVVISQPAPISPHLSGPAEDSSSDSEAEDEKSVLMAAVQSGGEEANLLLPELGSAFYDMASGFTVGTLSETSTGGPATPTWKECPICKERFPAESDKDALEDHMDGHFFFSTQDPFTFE
UniProt P49069: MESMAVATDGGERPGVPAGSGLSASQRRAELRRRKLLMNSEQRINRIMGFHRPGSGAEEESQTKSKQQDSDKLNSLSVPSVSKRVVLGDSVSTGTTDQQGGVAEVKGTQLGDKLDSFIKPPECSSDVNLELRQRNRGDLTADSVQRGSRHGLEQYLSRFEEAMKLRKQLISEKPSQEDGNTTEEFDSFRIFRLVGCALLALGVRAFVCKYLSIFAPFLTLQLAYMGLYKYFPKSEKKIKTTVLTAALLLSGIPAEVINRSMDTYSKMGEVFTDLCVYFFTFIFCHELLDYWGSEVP
UniProt Q8N999, whole entry, looked up: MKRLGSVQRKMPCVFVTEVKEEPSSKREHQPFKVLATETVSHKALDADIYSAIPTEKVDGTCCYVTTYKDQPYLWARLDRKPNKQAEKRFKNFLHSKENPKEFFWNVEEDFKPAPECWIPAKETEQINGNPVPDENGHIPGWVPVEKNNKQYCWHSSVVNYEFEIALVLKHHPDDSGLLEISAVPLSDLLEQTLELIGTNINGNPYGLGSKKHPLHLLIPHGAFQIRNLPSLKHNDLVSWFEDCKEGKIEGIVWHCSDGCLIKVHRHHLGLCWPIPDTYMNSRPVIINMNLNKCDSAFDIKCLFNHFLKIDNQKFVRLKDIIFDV
UniProt O43683: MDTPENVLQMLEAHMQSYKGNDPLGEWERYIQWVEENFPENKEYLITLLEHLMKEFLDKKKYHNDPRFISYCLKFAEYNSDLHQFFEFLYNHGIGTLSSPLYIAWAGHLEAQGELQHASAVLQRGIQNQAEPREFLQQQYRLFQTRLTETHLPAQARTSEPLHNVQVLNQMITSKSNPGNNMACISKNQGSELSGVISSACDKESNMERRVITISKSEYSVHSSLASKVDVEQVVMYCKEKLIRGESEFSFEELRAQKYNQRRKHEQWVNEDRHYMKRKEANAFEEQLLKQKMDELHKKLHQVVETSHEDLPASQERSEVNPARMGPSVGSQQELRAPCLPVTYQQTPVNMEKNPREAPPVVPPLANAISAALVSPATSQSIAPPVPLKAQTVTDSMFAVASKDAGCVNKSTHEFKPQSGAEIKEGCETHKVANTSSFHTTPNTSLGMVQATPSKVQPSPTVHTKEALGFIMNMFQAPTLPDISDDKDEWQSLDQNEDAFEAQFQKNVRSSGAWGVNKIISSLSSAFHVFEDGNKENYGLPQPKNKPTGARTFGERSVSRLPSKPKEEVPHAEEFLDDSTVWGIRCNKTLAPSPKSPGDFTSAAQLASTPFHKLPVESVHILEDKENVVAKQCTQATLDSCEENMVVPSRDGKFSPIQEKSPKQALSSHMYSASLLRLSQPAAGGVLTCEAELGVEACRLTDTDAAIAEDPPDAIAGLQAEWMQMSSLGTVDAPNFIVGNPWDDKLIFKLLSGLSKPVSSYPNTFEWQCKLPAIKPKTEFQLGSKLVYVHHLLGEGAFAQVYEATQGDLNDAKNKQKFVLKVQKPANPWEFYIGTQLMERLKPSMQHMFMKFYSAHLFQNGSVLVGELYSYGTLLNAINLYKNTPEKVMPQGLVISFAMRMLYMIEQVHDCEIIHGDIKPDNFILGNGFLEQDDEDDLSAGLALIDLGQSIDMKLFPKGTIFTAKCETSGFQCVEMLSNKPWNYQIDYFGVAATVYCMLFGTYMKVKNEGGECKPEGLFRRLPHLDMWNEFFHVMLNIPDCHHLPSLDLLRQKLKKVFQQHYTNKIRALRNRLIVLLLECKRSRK
UniProt Q96K31: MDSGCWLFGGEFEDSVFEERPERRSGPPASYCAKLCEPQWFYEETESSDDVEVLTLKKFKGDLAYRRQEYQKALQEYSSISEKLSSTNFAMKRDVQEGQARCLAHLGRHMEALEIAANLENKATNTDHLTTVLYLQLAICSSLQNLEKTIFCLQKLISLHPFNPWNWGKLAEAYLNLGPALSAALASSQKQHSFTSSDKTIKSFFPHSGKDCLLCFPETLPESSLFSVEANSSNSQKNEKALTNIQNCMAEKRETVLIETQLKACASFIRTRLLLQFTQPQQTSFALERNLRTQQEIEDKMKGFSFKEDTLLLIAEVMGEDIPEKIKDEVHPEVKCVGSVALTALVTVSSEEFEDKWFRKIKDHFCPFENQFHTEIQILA
UniProt P01024, whole entry, looked up: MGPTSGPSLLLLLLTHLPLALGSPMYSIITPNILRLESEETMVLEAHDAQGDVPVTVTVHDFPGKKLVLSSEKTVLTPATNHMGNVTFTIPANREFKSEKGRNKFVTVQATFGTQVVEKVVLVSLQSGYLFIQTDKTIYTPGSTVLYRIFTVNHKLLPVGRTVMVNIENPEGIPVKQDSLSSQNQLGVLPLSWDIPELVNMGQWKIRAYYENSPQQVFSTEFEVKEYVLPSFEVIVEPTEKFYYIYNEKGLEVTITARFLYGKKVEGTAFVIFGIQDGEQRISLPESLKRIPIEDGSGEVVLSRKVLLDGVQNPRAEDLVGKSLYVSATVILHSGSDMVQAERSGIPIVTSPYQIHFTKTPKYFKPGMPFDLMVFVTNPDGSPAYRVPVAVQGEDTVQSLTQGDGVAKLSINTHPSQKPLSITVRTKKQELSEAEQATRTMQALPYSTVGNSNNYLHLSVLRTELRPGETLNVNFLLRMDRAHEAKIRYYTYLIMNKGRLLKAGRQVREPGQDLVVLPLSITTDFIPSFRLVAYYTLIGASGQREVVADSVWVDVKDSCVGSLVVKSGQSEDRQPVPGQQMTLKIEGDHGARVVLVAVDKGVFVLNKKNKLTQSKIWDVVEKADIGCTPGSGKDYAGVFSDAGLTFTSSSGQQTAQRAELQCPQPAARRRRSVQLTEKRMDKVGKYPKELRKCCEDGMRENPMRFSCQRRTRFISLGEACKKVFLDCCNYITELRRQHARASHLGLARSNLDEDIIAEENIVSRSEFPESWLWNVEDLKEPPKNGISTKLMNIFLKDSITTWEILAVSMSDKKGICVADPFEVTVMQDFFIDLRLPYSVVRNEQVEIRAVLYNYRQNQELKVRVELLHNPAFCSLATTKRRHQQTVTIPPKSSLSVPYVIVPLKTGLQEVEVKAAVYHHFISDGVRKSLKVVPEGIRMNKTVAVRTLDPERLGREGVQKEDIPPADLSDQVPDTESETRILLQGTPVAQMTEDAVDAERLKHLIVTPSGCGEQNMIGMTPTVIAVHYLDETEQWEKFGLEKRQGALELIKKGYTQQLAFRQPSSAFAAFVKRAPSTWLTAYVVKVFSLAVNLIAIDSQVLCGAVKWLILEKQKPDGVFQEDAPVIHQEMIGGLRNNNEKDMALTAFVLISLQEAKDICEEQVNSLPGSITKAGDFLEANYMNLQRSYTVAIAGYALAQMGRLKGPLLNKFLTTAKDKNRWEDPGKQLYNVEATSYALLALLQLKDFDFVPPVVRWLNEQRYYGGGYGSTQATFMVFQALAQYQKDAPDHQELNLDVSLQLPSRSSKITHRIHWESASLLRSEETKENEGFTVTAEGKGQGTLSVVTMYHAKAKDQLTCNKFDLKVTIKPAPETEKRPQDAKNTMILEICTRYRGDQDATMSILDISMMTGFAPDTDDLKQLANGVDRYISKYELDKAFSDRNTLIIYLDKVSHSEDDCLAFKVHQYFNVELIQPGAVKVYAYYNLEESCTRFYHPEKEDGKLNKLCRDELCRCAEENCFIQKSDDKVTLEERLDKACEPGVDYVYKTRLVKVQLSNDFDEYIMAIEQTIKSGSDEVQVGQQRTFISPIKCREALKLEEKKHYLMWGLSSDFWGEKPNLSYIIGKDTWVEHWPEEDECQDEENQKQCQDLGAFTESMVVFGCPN
UniProt P05937: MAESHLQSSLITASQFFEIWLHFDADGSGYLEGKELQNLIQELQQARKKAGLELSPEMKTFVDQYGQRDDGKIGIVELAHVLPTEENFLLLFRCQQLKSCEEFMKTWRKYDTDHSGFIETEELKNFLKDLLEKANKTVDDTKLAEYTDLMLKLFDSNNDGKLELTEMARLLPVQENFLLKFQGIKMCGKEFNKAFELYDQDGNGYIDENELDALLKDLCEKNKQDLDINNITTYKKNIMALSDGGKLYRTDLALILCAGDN
UniProt Q9H3H3: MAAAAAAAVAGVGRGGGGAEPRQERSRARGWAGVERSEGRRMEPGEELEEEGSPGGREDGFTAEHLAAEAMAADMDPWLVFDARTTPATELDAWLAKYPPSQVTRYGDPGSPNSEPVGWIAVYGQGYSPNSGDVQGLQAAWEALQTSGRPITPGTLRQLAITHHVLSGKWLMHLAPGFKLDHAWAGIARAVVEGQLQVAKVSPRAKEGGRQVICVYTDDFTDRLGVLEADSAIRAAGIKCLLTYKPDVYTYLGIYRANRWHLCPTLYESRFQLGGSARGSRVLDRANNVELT
UniProt Q9HAS0: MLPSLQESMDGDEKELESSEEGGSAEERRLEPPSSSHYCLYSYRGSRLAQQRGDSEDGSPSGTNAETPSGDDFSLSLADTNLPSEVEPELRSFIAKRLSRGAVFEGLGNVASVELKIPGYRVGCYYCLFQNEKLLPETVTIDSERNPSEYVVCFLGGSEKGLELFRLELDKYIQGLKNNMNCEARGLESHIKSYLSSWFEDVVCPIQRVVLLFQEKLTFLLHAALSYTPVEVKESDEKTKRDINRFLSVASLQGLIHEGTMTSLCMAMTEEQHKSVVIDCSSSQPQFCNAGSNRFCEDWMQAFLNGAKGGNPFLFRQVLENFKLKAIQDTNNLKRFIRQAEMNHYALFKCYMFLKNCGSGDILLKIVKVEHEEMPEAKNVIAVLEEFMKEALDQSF
UniProt P17655: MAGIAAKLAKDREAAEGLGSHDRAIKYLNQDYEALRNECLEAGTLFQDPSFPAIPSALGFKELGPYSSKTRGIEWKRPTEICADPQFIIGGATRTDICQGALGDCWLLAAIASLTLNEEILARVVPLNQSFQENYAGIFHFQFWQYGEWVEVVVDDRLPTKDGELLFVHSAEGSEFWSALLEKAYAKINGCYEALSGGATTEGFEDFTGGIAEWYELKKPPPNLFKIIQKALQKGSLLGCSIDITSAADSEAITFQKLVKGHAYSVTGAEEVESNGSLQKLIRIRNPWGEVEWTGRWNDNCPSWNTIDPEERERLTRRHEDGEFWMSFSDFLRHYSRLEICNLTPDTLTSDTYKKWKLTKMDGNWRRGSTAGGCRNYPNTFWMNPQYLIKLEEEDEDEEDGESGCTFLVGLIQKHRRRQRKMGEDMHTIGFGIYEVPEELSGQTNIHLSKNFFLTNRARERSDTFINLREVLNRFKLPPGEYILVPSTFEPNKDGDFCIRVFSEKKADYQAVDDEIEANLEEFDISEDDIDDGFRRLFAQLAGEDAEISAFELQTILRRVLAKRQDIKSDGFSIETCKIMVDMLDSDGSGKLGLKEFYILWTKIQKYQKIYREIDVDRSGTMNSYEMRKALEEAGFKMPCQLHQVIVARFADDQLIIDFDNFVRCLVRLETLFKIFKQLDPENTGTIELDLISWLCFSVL
UniProt Q8N1Q1: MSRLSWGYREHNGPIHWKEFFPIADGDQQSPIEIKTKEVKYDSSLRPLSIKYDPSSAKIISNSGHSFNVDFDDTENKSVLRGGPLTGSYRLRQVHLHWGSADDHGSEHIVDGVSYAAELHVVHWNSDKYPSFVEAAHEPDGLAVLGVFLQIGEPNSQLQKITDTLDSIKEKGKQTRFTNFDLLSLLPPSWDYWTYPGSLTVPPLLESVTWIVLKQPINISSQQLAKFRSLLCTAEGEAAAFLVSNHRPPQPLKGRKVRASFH

[1] = compound: CCCS(=O)(=O)Nc1ccc(F)c(C(=O)c2c[nH]c3ncc(Cl)cc23)c1F
Outline: as §1

barasertib = compound: CCN(CCCOc1ccc2c(Nc3cc(CC(=O)Nc4cccc(F)c4)[nH]n3)ncnc2c1)CCOP(=O)(O)O [barasertib]
Outline: as §1

[2] = compound: CC[C@@H]1C(=O)N(C)c2cnc(Nc3ccc(C(=O)NC4CCN(C)CC4)cc3OC)nc2N1C1CCCC1
Outline: as §1

volasertib = compound: CC[C@@H]1C(=O)N(C)c2cnc(Nc3ccc(C(=O)N[C@H]4CC[C@H](N5CCN(CC6CC6)CC5)CC4)cc3OC)nc2N1C(C)C [volasertib]
Outline: as §1

[3] = compound: CCn1c(C(=O)N(C2CC2)C2CC2)cc2c3c(ncn3C)c(Nc3cc(C)n(C)n3)nc21
Outline: as §1

[4] = compound: CCn1cc(-c2ccnc3[nH]c(-c4cccc(CN(C)C)c4)cc23)c(-c2ccc(NC(=O)N(C)C)cc2)n1
Outline: as §1

[5] = compound: CN1CCC(CNc2ccc3ncc(-c4cccc(OC(F)(F)F)c4)n3n2)CC1
Outline: as §1

saracatinib = compound: CN1CCN(CCOc2cc(OC3CCOCC3)c3c(Nc4c(Cl)ccc5c4OCO5)ncnc3c2)CC1 [saracatinib]
Outline: as §1

sotrastaurin = compound: CN1CCN(c2nc(C3=C(c4c[nH]c5ccccc45)C(=O)NC3=O)c3ccccc3n2)CC1 [sotrastaurin]
Outline: as §1

Measured: log2 fold change

CALCOCO1 (UniProt Q9P1Z2)
inactive: vemurafenib 0.121 | [1] 0.021 | barasertib 0.047 | [2] -0.016 | volasertib -0.021 | [3] 0.051 | [4] -0.056 | [5] 0.026 | saracatinib 0.041 | sotrastaurin -0.013

C2CD2L (UniProt O14523)
inactive: vemurafenib 0.118 | [1] 0.044 | barasertib 0.008 | [2] 0.156 | volasertib -0.055 | [3] 0.033 | [4] -0.022 | [5] -0.027 | saracatinib 0.034 | sotrastaurin 0.034

CAMLG (UniProt P49069)
inactive: vemurafenib -0.027 | [1] 0 | barasertib -0.021 | [2] 0.026 | volasertib 0.002 | [3] -0.089 | [5] -0.04 | saracatinib -0.026 | sotrastaurin -0.002
active: [4] 0.257

C12orf29 (UniProt Q8N999)
inactive: vemurafenib 0.089 | [1] -0.027 | barasertib -0.026 | [2] -0.026 | volasertib -0.098 | [3] -0.009 | [4] -0.027 | [5] 0.022 | saracatinib 0.016 | sotrastaurin 0.024

BUB1 (UniProt O43683)
inactive: vemurafenib 0.077 | [1] -0.063 | barasertib 0.034 | [2] -0.088 | volasertib -0.073 | [3] -0.027 | [4] -0.159 | [5] 0.06 | saracatinib 0.041 | sotrastaurin -0.019

C8orf76 (UniProt Q96K31)
inactive: vemurafenib 0.01 | [1] 0.056 | barasertib -0.091 | [2] 0.055 | volasertib 0.006 | [3] 0.005 | [4] 0.014 | [5] 0.045 | saracatinib -0.051 | sotrastaurin 0.031

C11orf98 (UniProt E9PRG8)
inactive: vemurafenib 0.03 | [1] -0.013 | barasertib -0.011 | [2] 0.046 | volasertib -0.013 | [3] -0.021 | [4] -0.025 | [5] 0.032 | saracatinib -0.035 | sotrastaurin 0.007

C3 (UniProt P01024)
inactive: vemurafenib -0.02 | [1] 0.042 | barasertib 0.059 | [2] 0.07 | volasertib 0.009 | [3] -0.096 | [4] -0.134 | [5] 0.039 | saracatinib 0.001 | sotrastaurin 0.014

CALB1 (UniProt P05937)
inactive: vemurafenib -0.01 | [1] -0.022 | barasertib 0.251 | [2] 0.012 | volasertib 0.035 | [3] 0.015 | [4] 0.121 | [5] -0.103 | saracatinib -0.031 | sotrastaurin -0.003

C11orf68 isoform 3 (UniProt Q9H3H3)
inactive: vemurafenib 0.008 | [1] -0.004 | barasertib 0.001 | [2] 0.065 | volasertib -0.004 | [3] -0.04 | [4] 0.012 | [5] 0.05 | saracatinib 0.022 | sotrastaurin -0.014

C17orf75 (UniProt Q9HAS0)
inactive: vemurafenib 0.03 | [1] 0.049 | barasertib 0.051 | [2] -0.02 | volasertib -0.039 | [3] 0.048 | [4] -0.022 | [5] 0.099 | saracatinib 0.01 | sotrastaurin -0.008

CAPN2 (UniProt P17655)
inactive: vemurafenib -0.02 | [1] 0.012 | barasertib -0.006 | [2] -0.017 | volasertib -0.011 | [3] -0.01 | [4] 0.099 | [5] -0.023 | saracatinib -0.007 | sotrastaurin -0.011

CA13 (UniProt Q8N1Q1)
inactive: vemurafenib -0.019 | [1] 0.006 | barasertib -0.01 | [2] 0.021 | volasertib -0.05 | [3] -0.007 | [4] -0.03 | [5] 0.002 | saracatinib 0.046 | sotrastaurin -0.041

CAND2 (UniProt O75155)
inactive: vemurafenib -0.032 | [1] 0.007 | barasertib -0.012 | [2] 0.033 | volasertib 0.011 | [3] -0.007 | [4] 0.006 | [5] -0.027 | saracatinib 0.002 | sotrastaurin 0.011
